Laboratory results reported in PubChem BioAssay AID624297 (National Center for Advancing Translational Sciences (NCATS), 2012).
Screen size: about 340,000 compounds; about 6,200 (1.8%) were called active. This list was built around the results that the source calls inconclusive (neither active nor inactive); the mix of calls is not that of the screen. The call rests on the fitted dose curve; in most records, active means well fitted activation curve with a large enough effect; inconclusive means small, poorly fitted or top-dose-only effect; inactive means no such curve, though single readings can be large or run the other way. A potency beside an inconclusive call is a rough fit, not a confirmed value.

Experiment: A quantitative high throughput screen for small molecules that induce DNA re-replication in SW480 colon adenocarcinoma cells. Further: nearly all actives have a fitted effect of over 55% in size. On re-replication activation: % of control where 0% means no effect.
Details: Hoechst DNA content imaging, 48 h; re-replication activation: at 46.1 µM (top of the series) unless noted
Method in brief: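 Treated cells incubate 48 hr (37 C, 5% CO2), are stained 40 min with Hoechst, and nuclear fluorescence is enumerated; a rise in nuclei with high DNA signal marks re-replication.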
Potency means the concentration at half of the fitted maximal effect.

Row | SMILES | re-replication activation | Potency
1 | C[C@@H]1CN([C@@H](C)CO)C(=O)c2cccc(NC(=O)C3CCCCC3)c2O[C@@H]1CN(C)C(=O)NC1CCCCC1 | inactive: 2.46% | –
2 | CN(Cc1ccc(Cl)s1)C(=O)CCl | – | inconclusive: 9.2 µM [activator, partial curve, poor fit]
3 | NS(=O)(=O)c1ccc(N2N=C(c3ccc(Br)cc3)CC2c2ccc(F)cc2)cc1 (centres undefined) | – | inconclusive: 0.366 µM [activator, full curve, poor fit]
4 | Cc1cc(C)n(-c2nc(NCC3CCCO3)c3c4c(sc3n2)COC(C)(C)C4)n1 (centres undefined) | inactive: 16.8% | –
5 | Cc1ccc2c(c1)nnn2C1CCN(CC(=O)NCCc2ccccc2)CC1 | – | inconclusive: 29.1 µM [activator, single point]
6 | COc1ccc(NC(=S)Nc2ncccc2C)c(OC)c1 | – | inconclusive: 29.1 µM [activator, single point]
7 | Cc1nc2ccccc2n1/N=C/c1ccc([N+](=O)[O-])s1 | – | inconclusive: 5.17 µM [activator, full curve]
8 | C=CCNC(=O)/C(=C/c1cn(-c2ccccc2)nc1-c1cccc([N+](=O)[O-])c1)NC(=O)c1ccccc1 | – | inconclusive: 29.1 µM [activator, single point]
9 | O=C(COC(=O)Cc1cccs1)Nc1cccc(S(=O)(=O)N2CCOCC2)c1 | – | inconclusive: 18.4 µM [activator, partial curve, poor fit]
10 | O=C(NCc1ccc2c(c1)OCO2)c1ccc(CS(=O)(=O)c2cccc(C(F)(F)F)c2)o1 | inactive: -0.475% | –
11 | CCNS(=O)(=O)c1ccc2c(c1)NCC2 | – | active: 5.8 µM
12 | Cc1cccc(-c2ccc3c(c2)C2CC3CCN2C(=O)OCc2ccccc2)c1 (centres undefined) | inactive: -3.82% | –
13 | Cc1ccc([N+](=O)[O-])cc1N(CC(=O)Nc1ccc(S(=O)(=O)Nc2cccc(C(F)(F)F)c2)cc1)S(C)(=O)=O | – | inconclusive: 29.1 µM [activator, single point]
14 | COc1ccc(/C=C/C(=O)c2ccc[nH]2)cc1OC | – | inconclusive: 29.1 µM [activator, single point]
15 | Cc1ccccc1CC1SC(N)=NC1=O (centres undefined) | inactive: 0.601% | –
16 | COc1ccc(N2CCN(C(=O)c3cc(S(=O)(=O)N4CCCCCC4)ccc3OC)CC2)cc1 | – | inconclusive: 14.6 µM [activator, partial curve, poor fit]
17 | COc1ccc(-c2nnc(NC(=O)c3ccc(S(=O)(=O)N4CCCc5ccccc54)cc3)o2)cc1 | – | inconclusive: 11.2 µM [activator, partial curve, poor fit]
18 | CCOc1ccccc1CN1CCN(S(C)(=O)=O)CC1 | – | inconclusive: 29.1 µM [activator, single point]
19 | CC(C)Cc1[nH]c(=O)c(C#N)c2c1CCCC2 | – | inconclusive: 25.9 µM [activator, partial curve, poor fit]
20 | Cc1ccc(NC(=O)Cc2ccccc2F)cc1S(=O)(=O)N1CCCCCC1 | inactive: -3.49% | –
21 | COC(=O)c1c(C)[nH]c(C(=O)COC(=O)CCNS(=O)(=O)c2cccc(C(F)(F)F)c2)c1C | inactive: 1.32% | –
22 | O=Cc1c(NCc2ccccc2F)c2ccccc2[nH]c1=O | – | inconclusive: 8.2 µM [activator, partial curve, poor fit]

From compound 17 to 18, as listed above:
Row | SMILES | re-replication activation | Potency
17 | COc1ccc(-c2nnc(NC(=O)c3ccc(S(=O)(=O)N4CCCc5ccccc54)cc3)o2)cc1 | – | inconclusive: 11.2 µM [activator, partial curve, poor fit]
18 | CCOc1ccccc1CN1CCN(S(C)(=O)=O)CC1 | – | inconclusive: 29.1 µM [activator, single point]

(cont.)

Row | SMILES | re-replication activation | Potency
23 | Nc1c(C(=O)NCc2ccco2)c2nc3ccccc3nc2n1CCc1ccccc1 | – | active: 7.31 µM
24 | Cc1c(Br)c(=O)oc2c(Br)c(O)c(O)cc12 | inactive: 6.33% | –
25 | N#C/C(=C/c1ccc(N2CCCCCC2)o1)c1cccc(F)c1 | – | inconclusive: 4.61 µM [activator, full curve]
26 | O=C(O)c1ccccc1N1C(=O)C2C3c4ccccc4C(Br)(c4ccccc43)C2C1=O (centres undefined) | inactive: -4.42% | –
27 | N#CCC(=O)N/N=C/c1ccc(N2N=C(c3ccccc3)CC2c2ccccc2)cc1 (centres undefined) | – | inconclusive: 0.411 µM [activator, full curve]
28 | CC1=NN2C(=N)/C(=C\c3cc(C)n(-c4ccccc4)c3C)C(=O)N=C2S1 | inactive: 1.48% | –
29 | COc1ccc(NC(=O)c2c(Nc3ccccc3)sc(C(=O)c3ccc(F)cc3)c2N)cc1 | inactive: 4.58% | –
30 | CC(/C=C/c1ccccc1)=N\Nc1nc(C)cc(C)n1 | – | inconclusive: 29.1 µM [activator, single point]
31 | COc1ccc(Cl)cc1Nc1ncnc2sc(C)c(S(=O)(=O)N3CCC(C)CC3)c12 | – | inconclusive: 32.6 µM [activator, partial curve, poor fit]
32 | C=CC[C@H](CC(=O)N(CCO)Cc1ccccc1)C(=O)N[C@@H](COC(=O)[C@@H](CC=C)CC(=O)OC(C)(C)C)Cc1c[nH]c2ccccc12 | inactive: 11.6% | –
33 | Cc1cccc(CSc2ccc3nnc(-c4cccs4)n3n2)c1 | – | inconclusive: 29.1 µM [activator, single point]
34 | O=C(Cn1c[n+](CC(=O)c2ccc([N+](=O)[O-])cc2)cn1)c1ccc([N+](=O)[O-])cc1 | – | inconclusive: 16.4 µM [activator, partial curve, poor fit]
35 | COc1ccc(N2CC(C(=O)N3CCC4(CC3)CC(=O)c3ccccc3O4)CC2=O)cc1 (centres undefined) | inactive: -5.78% | –
36 | CCCCCCn1c(=O)[nH]c2c(c1=O)CCC2 | inactive: 4.49% | –
37 | CCSc1nnc(NC(=O)[C@@H](NC(=O)c2ccc(C(C)(C)C)cc2)C(C)C)s1 | – | inconclusive: 29.1 µM [activator, single point]
38 | COc1ccc(-c2cc(=O)c3c(O)c(OC)c(OC)c(OC)c3o2)cc1 | – | inconclusive: 20.6 µM [activator, partial curve, poor fit]
39 | O=C(NCc1ccco1)c1cccnc1Cl | inactive: 1.77% | –
40 | O=C(NCc1ccncc1)c1cccc(Cn2cc(Br)cn2)c1 | inactive: -4.5% | –
41 | CC(C)(C)c1ccc(-c2nnc(SC3CCOC3=O)n2Cc2ccccc2)cc1 (centres undefined) | inactive: 4.03% | –
42 | CCOC(=O)N1C(=O)[C@](c2ccc(Cl)cc2)(C(C)C)N1C(=O)OCC | – | inconclusive: 18.4 µM [activator, single point]
43 | Cc1ccc(S(=O)(=O)N(C)CC(=O)N(CC(C)C)C2CCS(=O)(=O)C2)cc1 (centres undefined) | – | active: 4.11 µM
44 | O=C1c2ccccc2C(=O)N1Cc1cc(-c2ccccc2)no1 | – | inconclusive: 29.1 µM [activator, single point]
